We go through one substance from paper PMC7916142.

Amino acid sequences for entries named in this document (tags omitted). Residues count along the entry.
UniProt Q924X6, residues 29-996: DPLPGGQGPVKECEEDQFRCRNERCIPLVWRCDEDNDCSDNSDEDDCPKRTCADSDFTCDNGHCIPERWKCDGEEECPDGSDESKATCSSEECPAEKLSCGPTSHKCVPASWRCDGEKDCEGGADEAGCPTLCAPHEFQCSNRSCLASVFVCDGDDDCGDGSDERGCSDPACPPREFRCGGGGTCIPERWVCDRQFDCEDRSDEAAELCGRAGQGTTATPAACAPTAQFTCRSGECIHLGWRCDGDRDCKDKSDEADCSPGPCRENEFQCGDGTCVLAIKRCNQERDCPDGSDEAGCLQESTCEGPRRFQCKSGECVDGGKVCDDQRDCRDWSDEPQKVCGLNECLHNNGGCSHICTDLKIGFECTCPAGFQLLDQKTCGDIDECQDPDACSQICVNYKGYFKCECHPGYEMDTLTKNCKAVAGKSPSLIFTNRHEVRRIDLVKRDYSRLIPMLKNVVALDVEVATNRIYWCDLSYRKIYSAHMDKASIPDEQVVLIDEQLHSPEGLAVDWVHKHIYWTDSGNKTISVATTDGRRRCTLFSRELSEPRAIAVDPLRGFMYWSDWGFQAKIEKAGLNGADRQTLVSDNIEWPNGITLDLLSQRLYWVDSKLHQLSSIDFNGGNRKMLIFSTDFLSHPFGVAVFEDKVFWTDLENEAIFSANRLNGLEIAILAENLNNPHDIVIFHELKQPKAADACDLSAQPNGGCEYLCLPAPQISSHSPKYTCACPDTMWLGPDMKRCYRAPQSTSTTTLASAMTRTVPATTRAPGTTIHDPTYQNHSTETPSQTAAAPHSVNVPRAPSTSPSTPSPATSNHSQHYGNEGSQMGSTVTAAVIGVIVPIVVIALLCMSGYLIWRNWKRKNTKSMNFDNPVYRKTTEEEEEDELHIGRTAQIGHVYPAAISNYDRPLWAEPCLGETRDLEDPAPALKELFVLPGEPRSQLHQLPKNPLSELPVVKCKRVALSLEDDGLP

The target in assay [1] is apolipoprotein E receptor 2 (ApoER2), endogenous in murine embryonic neurons (mouse (endogenous in embryonic neurons)) (UniProt Q924X6). The experiment in a line: co-IP; lysates of murine embryonic neurons (E15.5), endogenous proteins; immunoprecipitation with anti-EGFR or anti-ApoER2, Protein A Sepharose; Dab1 detected by blot; unrelated IgG as control.
For assay [2], the target named is epidermal growth factor receptor (EGFR), endogenous in murine embryonic neurons (mouse (endogenous in embryonic neurons)) (UniProt Q01279). The description is as above.

Results are given in words; binding and its absence hold for the method and conditions named. In cells and extracts the contact can be indirect. Binding can be weak; no strength is given.

“Disabled 1 (Dab1), endogenous in murine embryonic neurons (from UniProt P97318-2)”: the binding entry is recorded as “binds” in assay [1] and “binds weakly” in assay [2].
